No constants are given. Whether binding was seen depends on the method and setting. In cells and extracts the contact can be indirect.
Key:
EGFR = EGFR (UniProt P00533); experiment: co-IP; co-immunoprecipitation assays from cells, with EGF stimulation (Supplementary Fig. S4d); bait and cells not given
GRB2 = GRB2 (UniProt P62993); experiment: as above

Amino acid sequences for entries named in this document (tags omitted).
UniProt P62993: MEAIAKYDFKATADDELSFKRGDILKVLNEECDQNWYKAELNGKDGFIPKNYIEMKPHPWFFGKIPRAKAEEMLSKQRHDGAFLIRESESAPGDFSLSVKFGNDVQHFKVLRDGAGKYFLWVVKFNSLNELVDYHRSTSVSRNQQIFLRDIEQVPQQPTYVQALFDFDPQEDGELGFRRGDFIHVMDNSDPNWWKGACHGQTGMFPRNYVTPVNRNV

B1: MOB1 (protein, UniProt Q9H8S9 1-216)
chain: MSFLFSSRSSKTFKPKKNIPEGSHQYELLKHAEATLGSGNLRQAVMLPEGEDLNEWIAVNTVDFFNQINMLYGTITEFCTEASCPVMSAGPRYEYHWADGTNIKKPIKCSAPKYIDYLMTWVQDQLDDETLFPSKIGVPFPKNFMSVAKTILKRLFRVYAHIYHQHFDSVMQLQEEAHLNTSFKHFIFFVQEFNLIDRRELAPLQELIEKLGSKDR
Q: Which results are given for B1?
A: binding (EGFR): no binding; binding (GRB2): no binding

From publication PMC8560880
